{
  "source": "PubChem BioAssay AID504834",
  "about": "(National Center for Advancing Translational Sciences (NCATS), 2011)",
  "note": "Hit rate of the full screen: of about 320,000 compounds, about 22,000 (6.9%) were called active. Inconclusive results, whose numbers are uncertain, are shown with a selection of clear calls. Calls follow the shape of the dose curve; as a rule, active = well fitted inhibition curve with a large enough effect; inconclusive = small, poorly fitted or top-dose-only effect, or another doubt; inactive = no such curve, though single readings can be large or run the other way. Where the call is inconclusive, the potency comes from a doubtful curve fit. Potency is read from the fitted curve at half-maximal effect.",
  "data": [
    {"assay": "Primary qHTS for delayed death inhibitors of the malarial parasite plastid, 96 hour incubation", "conditions": "P. falciparum luciferase reporter growth; series mostly up to 28.7 µM", "how_it_was_run": "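Readout is luminescence from an integrated firefly luciferase in P. falciparum. Red cells, 2% hematocrit and 0.05% parasitemia final, were cultured with compound through two parasite generations (96 hours) at 37 C, 5% CO2.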", "values": [
      {"compound": "COc1ccc(OCCC(=O)OCC(=O)NCc2ccco2)cc1", "Potency": "inactive"},
      {"compound": "CC(C)(O)C#Cc1ccc(C(=O)N2CCN(c3ccc(F)cc3)CC2)cc1", "Potency": "inconclusive: 18.5 µM [inhibitor, single point]"},
      {"compound": "CCOc1ccccc1NC(=O)c1nc(-c2ccccc2)oc1C", "Potency": "inconclusive: 18.5 µM [inhibitor, single point]"},
      {"compound": "COc1cc(/C=C2\\SC(=Nc3ccc(Cl)c(C(=O)O)c3)NC2=O)c(Br)c(Br)c1O", "Potency": "inconclusive: 18.5 µM [inhibitor, single point]"},
      {"compound": "COc1ccc(NC(=S)N(CCO)Cc2cc3c(C)cc(C)cc3[nH]c2=O)cc1", "Potency": "inconclusive: 10.4 µM [inhibitor, partial curve]"},
      {"compound": "O=[N+]([O-])c1ccc(N/N=C/c2sc(N3CCOCC3)nc2-c2ccccc2)c(S(=O)(=O)Nc2ccc(Cl)cc2)c1", "Potency": "inconclusive: 2.62 µM [inhibitor, full curve, poor fit]"},
      {"compound": "CN(Cc1ccccc1)c1nc2nonc2nc1N1CCCC(CN2CCCC2=O)C1", "note": "(centres undefined)", "Potency": "inconclusive: 3.29 µM [inhibitor, partial curve, poor fit]"},
      {"compound": "COc1ccc(CCNC(=O)CNC(=O)c2ccc(Br)o2)cc1OC", "Potency": "inactive"},
      {"compound": "COC(=O)c1cc2c(ccn2-c2ccc(F)cc2)n1Cc1ccc(C#N)cc1", "Potency": "inactive"},
      {"compound": "Cc1ccc(C)c(NC(=S)N/N=C/C(C)c2ccccc2)c1", "note": "(centres undefined)", "Potency": "inconclusive: 18.5 µM [inhibitor, partial curve, poor fit]"},
      {"compound": "N#C/C(=C\\c1c(N2CCCCC2)nc2ccccn2c1=O)S(=O)(=O)c1ccccc1", "Potency": "active: 5.22 µM"},
      {"compound": "O=C(NCc1cccnc1)c1cccc2c1C(=O)N(Cc1cccnc1)C2", "Potency": "inconclusive: 10.4 µM [inhibitor, partial curve, poor fit]"},
      {"compound": "CC(=O)c1cccc(NC(=O)c2ccc(C(=O)Nc3cccc(C(C)=O)c3)nc2)c1", "Potency": "inconclusive: 18.5 µM [inhibitor, single point]"},
      {"compound": "Cc1ccc2nc(/C(C#N)=C\\c3ccc([N+](=O)[O-])o3)[nH]c2c1", "Potency": "inconclusive: 13.1 µM [inhibitor, partial curve, poor fit]"},
      {"compound": "NCCc1ccc(OCc2ccccc2)c(OCc2ccccc2)c1", "Potency": "active: 10.4 µM"},
      {"compound": "CCOc1ccc(Br)cc1C(=O)N/N=C/c1cccnc1", "Potency": "inconclusive: 0.147 µM [inhibitor, full curve, poor fit]"},
      {"compound": "CCn1c(SCc2ccccc2)nnc1C1CCN(S(=O)(=O)c2ccc(OC)cc2)CC1", "Potency": "inconclusive: 9.28 µM [inhibitor, partial curve, poor fit]"},
      {"compound": "Nc1nc(N)nc(-c2cc(Cl)ccc2Cl)n1", "Potency": "active: 8.49 µM"},
      {"compound": "C=CCn1c(SCc2c(C)noc2C)nc2sc(C)c(C)c2c1=O", "Potency": "active: 9.28 µM"},
      {"compound": "Cc1cc(-c2ccc(C)c(S(=O)(=O)Nc3cc(C)on3)c2)on1", "Potency": "inconclusive: 18.5 µM [inhibitor, single point]"},
      {"compound": "O=C1C(C=NC2CC2)=C(O)c2ccccc21", "Potency": "active: 13.1 µM"},
      {"compound": "C=CC(=O)NC(NC(=O)C=C)c1ccccc1F", "Potency": "active: 9.28 µM"},
      {"compound": "COc1ccc(S(=O)(=O)CCC(=O)N2c3ccccc3CC2C)cc1", "note": "(centres undefined)", "Potency": "inactive"},
      {"compound": "O=C(NNc1nc(-c2ccccc2)c2cc(Br)ccc2n1)c1ccc(S(=O)(=O)N2CCOCC2)cc1", "Potency": "inactive"},
      {"compound": "CN(Cc1cccc(Cl)c1Cl)c1ccc(S(=O)(=O)N2CCCCC2)cc1[N+](=O)[O-]", "Potency": "inconclusive: 14.7 µM [inhibitor, single point]"},
      {"compound": "CC(NC(=O)COc1cc(=O)n(C)c2ccccc12)c1ccc2c(c1)OCCO2", "note": "(centres undefined)", "Potency": "active: 8.28 µM"},
      {"compound": "CC(=O)N1[C@H](Cc2ccccc2)C=C[C@]1(C)C(=O)NCCc1c[nH]c2ccccc12", "Potency": "inconclusive: 13.1 µM [inhibitor, single point]"},
      {"compound": "C=CCN1C(=O)C(C)(C)N(C(C)=O)c2ccccc21", "Potency": "inconclusive: 16.5 µM [inhibitor, partial curve, poor fit]"},
      {"compound": "COc1ccc2ccn(C)c2c1", "Potency": "inactive"},
      {"compound": "C=CCOc1c(OC)cc(Cl)cc1C1NC(=O)NC(C)=C1C(C)=O", "note": "(centres undefined)", "Potency": "active: 3.29 µM"},
      {"compound": "COCCNc1nnc(SCC(=O)NC(=O)c2ccccc2)s1", "Potency": "inactive"},
      {"compound": "CCNC(=O)/C(C#N)=C/c1c(N2CCN(c3cccc(Cl)c3)CC2)nc2c(C)cccn2c1=O", "Potency": "inconclusive: 18.5 µM [inhibitor, single point]"},
      {"compound": "Nc1nc(NCc2ccc(Cl)cc2)nc(NCCO)c1[N+](=O)[O-]", "Potency": "inconclusive: 10.4 µM [inhibitor, single point]"},
      {"compound": "Cc1occc1C(=O)NNC(=O)C1CCCCC1", "Potency": "inconclusive: 18.5 µM [inhibitor, single point]"},
      {"compound": "O=C(O)CCNC(=O)OCC1c2ccccc2-c2ccccc21", "Potency": "inactive"},
      {"compound": "O=[N+]([O-])c1ccc(N2CCN(c3ccc(O)cc3)CC2)c(Cl)c1", "Potency": "inconclusive: 0.262 µM [inhibitor, full curve, poor fit]"},
      {"compound": "CCOc1ccc(-n2c(SCC(=O)Nc3cc(C)on3)nnc2-c2c[nH]c3ccccc23)cc1", "Potency": "active: 5.86 µM"},
      {"compound": "COc1ccc(NC(=O)CN(C)C(=O)Cc2c[nH]c3ccccc23)cc1", "Potency": "inconclusive: 18.5 µM [inhibitor, single point]"},
      {"compound": "Cc1ccc(S(=O)(=O)Oc2ccccc2/C=C2/SC(=O)NC2=O)cc1", "Potency": "inconclusive: 0.0465 µM [inhibitor, full curve, poor fit]"},
      {"compound": "CCN(CC)C(=O)N[C@H]1C[C@@H]2c3cccc4[nH]cc(c34)C[C@H]2N(C)C1", "Potency": "active: 0.928 µM"},
      {"compound": "CC1C/C(=N/Nc2nc3ccccc3[nH]2)CC(C)(C)C1", "note": "(centres undefined)", "Potency": "active: 2.08 µM"},
      {"compound": "Oc1c(C(c2ccc(Cl)cc2)N2CCCC2)cc(Cl)c2cccnc12", "note": "(centres undefined)", "Potency": "active: 1.85 µM"},
      {"compound": "CCOC(=O)Cc1csc(NC(=O)c2cc3ccccc3o2)n1", "Potency": "inactive"},
      {"compound": "CC(C)CNC(=O)C(=O)NNC(=O)c1ccco1", "Potency": "inconclusive: 11.7 µM [inhibitor, single point]"},
      {"compound": "COc1cc(/C=C2\\C(=N)N3N=CSC3=NC2=O)cc(Br)c1OC(=O)c1ccco1", "Potency": "inconclusive: 16.5 µM [inhibitor, single point]"},
      {"compound": "O=C1C2C(C(=O)N1Cc1cccnc1)C1C=CC2C12CC2", "note": "(centres undefined)", "Potency": "inactive"},
      {"compound": "C(=N\\c1nc2ccccc2[nH]1)/c1cccs1", "Potency": "active: 10.4 µM"},
      {"compound": "CCN(Cc1ccccc1)C(c1ccncc1)c1nnnn1C(C)(C)C", "note": "(centres undefined)", "Potency": "inactive"},
      {"compound": "CCc1c(C)nc(N)nc1N1N=C1SCCOc1ccccc1", "Potency": "inconclusive: 10.4 µM [inhibitor, single point]"},
      {"compound": "Cc1ccc(NC2c3ncccc3C(=O)N2Cc2cccs2)cc1C", "note": "(centres undefined)", "Potency": "inconclusive: 13.1 µM [inhibitor, partial curve, poor fit]"},
      {"compound": "Cc1cccc(C)c1Nc1nnc(SCC(=O)Nc2sccc2C#N)s1", "Potency": "inconclusive: 18.5 µM [inhibitor, single point]"},
      {"compound": "CCOc1ccc(CCNC(=O)COC(=O)/C=C/c2ccco2)cc1OCC", "Potency": "active: 7.38 µM"},
      {"compound": "CCOC(=O)C1CCN(S(=O)(=O)c2ccc3c4c2CC(=O)N4CC(C)S3)CC1", "note": "(centres undefined)", "Potency": "inactive"},
      {"compound": "Cc1cc(C)cc(NC(=O)c2ccc(CN3CCc4ccccc4C3)cc2)c1", "Potency": "inconclusive: 11.7 µM [inhibitor, single point]"},
      {"compound": "CCOc1ccc(NC(=O)Cn2c(=O)n(CC3CCCO3)c(=O)c3ccccc32)cc1", "note": "(centres undefined)", "Potency": "inconclusive: 0.0657 µM [inhibitor, partial curve, poor fit]"},
      {"compound": "CCOP(=S)(OCC)C(O)CCCCCn1c(=O)c(F)cn(C2CCCO2)c1=O", "note": "(centres undefined)", "Potency": "inconclusive: 20.8 µM [inhibitor, partial curve, poor fit]"},
      {"compound": "CCC1=C(OC(=O)N(CC)CC)N2C(=O)OC(=NCC3CC3)[C@]2(Cc2ccccc2)[C@H]2C1=CC[C@H]1C(=O)N(C)C(=O)[C@H]12", "Potency": "active: 9.28 µM"},
      {"compound": "Cc1nnc(-c2ccc(N3CCCCCC3)c([N+](=O)[O-])c2)o1", "Potency": "inconclusive: 10.4 µM [inhibitor, partial curve, poor fit]"},
      {"compound": "C=CCn1c(SCC(=O)Nc2ncc(Cc3cc(Cl)ccc3Cl)s2)nnc1-c1ccncc1", "Potency": "inconclusive: 4.65 µM [inhibitor, partial curve]"},
      {"compound": "CCN(CC)CCn1c(=S)[nH]c2ccc(Br)cc2c1=O", "Potency": "inactive"},
      {"compound": "COc1ccc(CN(C(=O)c2oc3ccc(F)cc3c2C)C2CCS(=O)(=O)C2)cc1", "note": "(centres undefined)", "Potency": "inconclusive: 9.28 µM [inhibitor, single point]"},
      {"compound": "CC(C)CCNC(=O)c1onc(CSc2nc3ccccc3[nH]2)c1C(=O)NCCC(C)C", "Potency": "active: 2.33 µM"},
      {"compound": "Cc1cc(-n2c(C)cc(C(=O)COc3cccnc3[N+](=O)[O-])c2C)no1", "Potency": "inconclusive: 18.5 µM [inhibitor, partial curve, poor fit]"},
      {"compound": "N#CCc1ccccc1C(=O)OCC(=O)N(Cc1ccccc1)Cc1ccccc1", "Potency": "inconclusive: 10.4 µM [inhibitor, single point]"},
      {"compound": "CCN(CC)S(=O)(=O)c1cc(C(=O)N(C)CC(=O)Nc2ccc(Cl)cc2)ccc1Cl", "Potency": "inconclusive: 18.5 µM [inhibitor, single point]"},
      {"compound": "CCCCn1c(N)c(N(CCOC)C(=O)CSc2n[nH]c(-c3ccc(OC)cc3)n2)c(=O)[nH]c1=O", "Potency": "inactive"},
      {"compound": "CN(Cc1ccccc1)C(=O)c1ccc(NC(=O)Cc2cccc(NC(=O)C3CCN(C(=O)C4CCC4)CC3)c2)cc1", "Potency": "inconclusive: 0.928 µM [inhibitor, single point]"},
      {"compound": "CCSc1nnc(CSc2ncccn2)n1C", "Potency": "inconclusive: 2.33 µM [inhibitor, full curve, poor fit]"},
      {"compound": "O=C1CCN1C1(C(=O)NC2CCCCC2)CCCC1", "Potency": "inconclusive: 6.57 µM [inhibitor, partial curve, poor fit]"}
    ]}
  ]
}
